According to publication PMC11358031:
No constants are given. Whether binding was seen depends on the method and setting. Some binding calls cover weakened binding; strength is not graded here. Values belong to the binder of their own block, whether it stands above or below them.

Chains of the proteins cited; added tags and fusions are not shown. Residues count along the entry.
UniProt P37023, residues 22-118: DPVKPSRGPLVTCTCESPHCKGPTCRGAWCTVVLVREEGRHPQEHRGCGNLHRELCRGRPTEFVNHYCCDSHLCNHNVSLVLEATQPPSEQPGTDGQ

Target: ALK1-Fc (human ALK1 ectodomain) (human) (UniProt P37023)
Assay: SPR; ALK1-Fc immobilised on the chip; saturating BMP9 or BMP10 injected first, then a saturating amount of mAb2; two consecutive injections (n = 2); both purified

binding: binds
B1: bone morphogenetic protein-9 (BMP9) (ligand, UniProt Q9UK05 320-429)
chain: SAGAGSHCQKTSLRVNFEDIGWDSWIIAPKEYEAYECKGGCFFPLADDVTPTKHAIVQTLVHLKFPTKVGKACCVPTKLSPISVLYKDDMGVPTLKYHYEGMSVAECGCR

binding: binds
B2: BMP10 (ligand, UniProt O95393 317-424)
chain: NAKGNYCKRTPLYIDFKEIGWDSWIIAPPGYEAYECRGVCNYPLAEHLTPTKHAIIQALVHLKNSQKASKACCVPTKLEPISILYLDKGVVTYKFKYEGMAVSECGCR
